No constants are given. Whether binding was seen depends on the method and setting. Binding seen in cells or lysates may run through a third protein. Some results given as binding are weak or reduced against the parent protein; the word gives no strength.

Amino acid sequences for entries named in this document (tags omitted).
UniProt Q99873: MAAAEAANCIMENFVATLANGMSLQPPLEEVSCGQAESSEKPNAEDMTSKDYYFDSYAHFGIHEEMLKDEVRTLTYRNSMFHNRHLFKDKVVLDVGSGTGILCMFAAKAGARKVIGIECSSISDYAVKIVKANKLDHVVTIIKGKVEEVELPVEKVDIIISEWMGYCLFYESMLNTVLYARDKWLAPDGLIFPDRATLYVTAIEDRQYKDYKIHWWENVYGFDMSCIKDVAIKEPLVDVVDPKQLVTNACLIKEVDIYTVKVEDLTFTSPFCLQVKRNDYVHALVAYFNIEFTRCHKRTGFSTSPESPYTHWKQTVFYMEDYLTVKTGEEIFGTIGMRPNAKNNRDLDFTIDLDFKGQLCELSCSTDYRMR

Experiment [1] has as its target T1, ectopically expressed full-length METTL14 (UniProt Q9HCE5).
T1 sequence: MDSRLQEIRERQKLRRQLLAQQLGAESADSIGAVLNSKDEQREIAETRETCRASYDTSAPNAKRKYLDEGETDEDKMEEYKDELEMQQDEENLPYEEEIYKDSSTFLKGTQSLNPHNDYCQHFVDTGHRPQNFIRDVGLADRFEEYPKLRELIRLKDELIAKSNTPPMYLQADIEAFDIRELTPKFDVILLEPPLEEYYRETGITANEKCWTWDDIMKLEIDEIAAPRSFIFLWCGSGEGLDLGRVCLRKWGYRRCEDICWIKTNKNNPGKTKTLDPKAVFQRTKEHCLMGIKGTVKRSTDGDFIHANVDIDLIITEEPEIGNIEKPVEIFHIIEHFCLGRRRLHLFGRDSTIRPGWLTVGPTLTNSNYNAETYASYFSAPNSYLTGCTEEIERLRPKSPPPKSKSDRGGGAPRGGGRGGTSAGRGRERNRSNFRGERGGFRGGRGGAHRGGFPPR
Nature of the experiment: co-IP; full-length or truncated METTL14 transfected into HeLa cells with PRMT1; western blot.

For experiment [2], the target named is T2, METTL14 (endogenous, HeLa) (human (endogenous in HeLa)) (UniProt Q9HCE5).
T2 sequence: T1 sequence
Nature of the experiment: co-IP; endogenous proteins in HeLa lysate; anti-METTL14 or anti-PRMT1 antibody with Dynabeads Protein G, 3 h at 4 C; IP buffer 25 mM Tris, 150 mM NaCl, 1 mM EDTA, 5% glycerol, Triton X-100; western blot. (In general: A western blot detects proteins with antibodies after separation by electrophoresis.)

Take “PRMT1 (transfected into HeLa cells with METTL14 constructs) (from UniProt Q99873 1-371) (enzyme)”: the binding result in experiment [1] is recorded as “binds”. Regarding “protein arginine N-methyltransferase 1 (PRMT1) (endogenous, HeLa) (from UniProt Q99873 1-371) (enzyme)”, the binding entry in experiment [2] is reported as “binds”.

The record behind these values is publication PMC8213825.
